The other results are listed elsewhere or left out. Shown are side measurements of this screen, not its main read-out; they come without a call. The list favours compounds with an active or inconclusive main result. The note in brackets gives the kind of curve behind each potency; many fits are weak.

The experiment is described as follows: IkB Signaling. The following applies: ABC-DLBCL IkBa-CBG/CBR dual luciferase ratio (green luciferase fused to IkBa over red control in OCI-Ly3 lymphoma cells), 4 h; measured here: control luc red channel unless noted. An outline of the steps: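 In this assay, an IκBα–CBG68 fusion accumulates when IKK-driven degradation is blocked; native CBR normalizes for cell number. OCI-Ly3 cells were treated 4 h with compound and doxycycline, then green and red light read after Chroma-Glo addition.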
The AC50 is the concentration giving half of the maximal activity seen. As for `O=C(C1CCCN(S(=O)(=O)c2ccc(F)cc2)C1)N(Cc1cccs1)C1CC1` (configuration not stated), the AC50 was 25.1 µM [falling, partial curve]. As to `Cc1cc(N2CCC(C(=O)Nc3ccc(F)cc3)CC2)nc(-c2ccccc2)n1`, the AC50 is 25.1 µM [falling, partial curve]. On to `CCCOc1cccc(C(=O)Nc2cccc(-c3nc4ncccc4o3)c2C)c1`, for which the AC50 was 5.01 µM [falling, partial curve]. Regarding `CCn1cc2nc(SCC(=O)Nc3ccc(OC)c(OC)c3)n(Cc3ccc(Cl)cc3)c(=O)c2n1`, the concentration at half-maximal activity (AC50) was 20 µM [falling, partial curve].

Consider `Cc1cn2c(=O)cc(COC(=O)c3cccc(NC(=O)c4ccc(C(C)(C)C)cc4)c3)nc2s1`, for which the AC50 is 3.16 µM [falling, full curve].

On to `Cc1c(C(=O)NCc2ccccc2Cl)sc2nc3n(c(=O)c12)CCCCC3`, for which the half-maximal activity concentration (AC50) is 2 µM [falling, full curve]. As for `CC(=O)c1cccc(NC(=O)C2CCN(C(=O)c3cnn(-c4ccccc4)c3-n3cccc3)CC2)c1`, the concentration at half-maximal activity (AC50) was 20 µM [falling, single point]. As to `Cc1ccccc1-c1nc2scc(CCNS(=O)(=O)c3ccccc3)n2n1`, the half-maximal activity concentration (AC50) was 12.6 µM [falling, partial curve]. As for `Cc1nn2c(=O)cc(COC(=O)c3cccc(NC(=O)CCc4ccccc4)c3)nc2s1`, the AC50 is 5.01 µM [falling, partial curve]. `O=C(Cn1cc(SCc2ccc(C(F)(F)F)cc2)c2ccccc21)N1CCOCC1`: the half-maximal activity concentration (AC50) was 15.8 µM [falling, partial curve]. Consider `O=C(NCc1ccccc1)c1cc2sccc2n1Cc1ccc(Cl)cc1`, for which the AC50 was 3.98 µM [falling, partial curve, poor fit]. Turning to `Cc1ccccc1NS(=O)(=O)c1ccc2[nH]cc(C(=O)N(C)Cc3ccco3)c(=O)c2c1`, the AC50 is 12.6 µM [falling, partial curve]. `Cc1ccc2occ(CC(=O)N(Cc3ccccc3Cl)C3CCS(=O)(=O)C3)c2c1` (configuration not stated): the AC50 was 25.1 µM [falling, single point]. As to `O=C(CSc1oc(-c2ccccc2)nc1S(=O)(=O)c1ccc(Cl)cc1)Nc1ccc(F)cc1`, the half-maximal activity concentration (AC50) was 25.1 µM [falling, partial curve]. Next, `Cc1cc(OCC(=O)Nc2ccc3c(c2)OCCO3)ccc1Cl`: 20 µM [falling, partial curve]. Regarding `Cc1ccc(Cn2cc(CCC(=O)NC3CCC(C)CC3)c3ccccc32)cc1` (configuration not stated), the AC50 was 7.94 µM [falling, partial curve].

For the compound `CC1CCC(Nc2nc3c(-c4ccc(Cl)cc4)nnn3c3ccccc23)CC1` (configuration not stated), the AC50 was 1.26 µM [falling, full curve]. As for `Cc1c(OCc2ccc(C(=O)O)o2)ccc2c3c(c(=O)oc12)CCC3`, the concentration at half-maximal activity (AC50) was 3.16 µM [falling, full curve]. On to `Cc1cc(=O)[nH]c2nnc(SCc3ccc(F)cc3)n12`, for which the AC50 is 6.31 µM [rising, single point]. On to `O=C(CC(c1cccs1)N1Cc2ccccc2C1=O)Nc1ccc(F)c(F)c1` (configuration not stated), for which the AC50 was 5.01 µM [falling, partial curve, poor fit]. With `CCOC(=O)c1ccc(-n2c(CCC(=O)O)ccc2-c2ccc(Br)cc2)cc1`, the AC50 was 15.8 µM [falling, partial curve]. Then `O=c1cc(-c2ccc(Cl)c(Cl)c2)[nH][nH]1`, with 6.31 µM [falling, partial curve]; and `COc1ccc(CC(=O)Nc2sc3c(c2C(=O)Nc2cccc(Cl)c2)CCCCC3)cc1`, with 7.94 µM [falling, partial curve, poor fit]; and `CCn1cc(Br)c(C(=O)Nc2ccc(C(=O)OC(C)C)cc2)n1`, with 25.1 µM [falling, single point]. For `CC(C)Oc1ccc(CNC(=O)CCCN2C(=O)CCn3nc(-c4cccn4C)cc32)cc1`, the AC50 was 20 µM [falling, partial curve]. Then `O=C(c1ccco1)n1nc(-c2ccccc2)nc1NCc1ccc(Cl)cc1`, with 0.1 µM [rising, full curve]; and `Cc1nn(-c2ccccc2)c2c1N(CCCC(=O)NCc1ccc(N(C)C)cc1)C(=O)CS2`, with 15.8 µM [falling, partial curve]. As for `CCC(=O)N1c2ccccc2CC1C(=O)N1CCN(c2cccc(Cl)c2)CC1` (configuration not stated), the AC50 was 12.6 µM [falling, partial curve]. Next, `COc1cccc(-c2nc(CS(=O)(=O)CC(=O)N3CCc4ccccc4C3)c(C)o2)c1`: 12.6 µM [falling, partial curve]; `CC(C)Cc1nnc(NC(=O)CCN2C(=O)c3ccccc3C2=O)s1`: 10 µM [falling, partial curve]. Take `COc1cc(-c2nc(-c3ccccn3)no2)cc(OC)c1OC`: the concentration at half-maximal activity (AC50) was 7.94 µM [falling, full curve]. In the case of `COc1ccc2occ(C(=O)c3coc4ccc(O)c(CN(C)C)c34)c2c1`, the AC50 was 10 µM [falling, partial curve].

For the compound `Cc1nn2c(=O)cc(COC(=O)c3ccc(NC(=O)c4cccc(Br)c4)cc3)nc2s1`, the half-maximal activity concentration (AC50) was 2.51 µM [rising, partial curve]. Take `c1csc(-c2csc3nc(CN4CCOCC4)nc(NCc4ccc5c(c4)OCO5)c23)c1`: the AC50 was 39.8 µM [falling, single point]. For `COC(=O)c1ccccc1NC(=O)Cn1c(=O)n(CCC(=O)NCc2ccccc2OC)c(=O)c2ccccc21`, the AC50 was 39.8 µM [rising, single point] [measured here: IkB-luc green channel]. In the case of `COc1cc(OC)cc(-c2cc3nc(C)c(CCC(=O)Nc4ccc(C(C)=O)cc4)c(C)n3n2)c1`, the half-maximal activity concentration (AC50) was 3.98 µM [falling, partial curve]. For `CC(C)c1ccc(CNc2nc(-c3ccco3)nn2C(=O)c2ccc([N+](=O)[O-])cc2)cc1`, the concentration at half-maximal activity (AC50) was 10 µM [falling, partial curve].

Regarding `CSCCC(NS(=O)(=O)c1ccc2c(c1)oc(=O)n2C)C(=O)Nc1ccc(Cl)cc1` (configuration not stated), the AC50 was 20 µM [falling, single point]. Next, `Cc1ccc(C(=O)Nc2ccc(Cl)cn2)cc1`: 15.8 µM [falling, single point]; `COCc1cc(C)nc2sc3c(c12)NC(c1ccc(O)c(OC)c1)N(c1ccccc1)C3=O` (configuration not stated): 25.1 µM [falling, partial curve]; `COc1ccc(OCC(=O)N(Cc2cccs2)c2ccc(OC)cc2)cc1`: 12.6 µM [falling, partial curve].

With `CCOC(=O)c1nnn(-c2nonc2N)c1CSc1ccc(C)cc1`, the concentration at half-maximal activity (AC50) was 20 µM [falling, partial curve]. In the case of `CCOCCCNc1nc2ccccc2n2c(CC)nnc12`, the half-maximal activity concentration (AC50) was 10 µM [falling, partial curve]. Then `CCOc1ccccc1CNC(=O)c1ccc(NC(=O)N2CC(C)Sc3ccccc32)cc1` (configuration not stated), with 10 µM [falling, partial curve]. Next, `O=C(NC1(C(F)(F)F)C(=O)Nc2c1c(=O)[nH]c(=O)n2-c1ccccc1)c1ccccc1` (configuration not stated): 0.0126 µM [rising, full curve, poor fit]. On to `COc1ccc(OC)c(CNC(=O)CN(c2ccc(C)cc2)S(=O)(=O)N(C)C)c1`, for which the concentration at half-maximal activity (AC50) was 25.1 µM [falling, single point].

On to `CCCN(C(=O)Cn1ncc2c1-c1ccccc1OC2)c1cccc(C)c1`, for which the AC50 is 31.6 µM [falling, partial curve, poor fit]. For `O=C(Nc1ccc2c(c1)OCCO2)c1ccc(Br)c(S(=O)(=O)N2CCOCC2)c1`, the concentration at half-maximal activity (AC50) is 5.01 µM [falling, partial curve]. Consider `CCc1ccc(-c2nc(SCC(=O)NCC3CCCO3)c(-c3ccc(C)cc3)[nH]2)cc1` (configuration not stated), for which the half-maximal activity concentration (AC50) is 0.0501 µM [falling, full curve, poor fit]. Then `Cc1cccc(C)c1NC(=O)Cn1c(=O)n(CCCS(=O)(=O)C2CCCCC2)c(=O)c2ccccc21`, with 3.98 µM [rising, single point]; and `Cc1cccc(N2CCN(c3ccc(C(=O)O)cc3NC(=O)c3cccc(Cl)c3)CC2C)c1` (configuration not stated), with 10 µM [falling, partial curve]. Next, `O=C(CSc1nccn1C1CCCC1)Nc1cccc(F)c1`: 1.26 µM [rising, full curve]. Turning to `CSCC[C@@H](C(=O)Nc1cccc(F)c1)N1Cc2ccccc2C1=O`, the half-maximal activity concentration (AC50) is 31.6 µM [falling, single point]. As to `CCOC(=O)C1CCN(c2c(C(=O)c3ccc(OC)cc3)cnc3ccccc23)CC1`, the AC50 was 31.6 µM [falling, single point].

`CCOC(=O)c1cc2c(=O)n3ccccc3nc2n(Cc2ccco2)c1=NC(=O)c1ccc(C)c(C)c1`: the AC50 was 39.8 µM [falling, single point]. For `CN(c1ccccc1)S(=O)(=O)c1nnc(NC(=O)COc2ccccc2)s1`, the AC50 was 0.398 µM [rising, partial curve]. As for `Cc1cc(C)cc(-n2c(C)cc(C(=O)C(=O)Nc3nnc(C)s3)c2C)c1`, the AC50 was 25.1 µM [falling, single point].

Turning to `CN(C(=O)Cn1cnc2onc(-c3ccc(F)cc3)c2c1=O)c1ccccc1Cl`, the half-maximal activity concentration (AC50) was 2.51 µM [falling, full curve, poor fit]. Regarding `O=[N+]([O-])c1cc(-c2nc(-c3ccco3)no2)ccc1NCc1ccccc1`, the concentration at half-maximal activity (AC50) was 25.1 µM [falling, single point].

As to `Cc1ccc2nc(NC(=O)C3CCCN(S(=O)(=O)c4cccnc4)C3)sc2c1` (configuration not stated), the AC50 is 12.6 µM [falling, partial curve]. For the compound `CC(=O)c1c(Nc2ccc3c(c2)OCCO3)oc(C)cc1=O`, the concentration at half-maximal activity (AC50) was 7.94 µM [falling, partial curve]. Next, `CCC(=O)Nc1cccc(-c2nc3ccccc3c(=O)o2)c1`: 20 µM [falling, partial curve].

For the origin of these results see PubChem BioAssay AID445 (National Center for Advancing Translational Sciences (NCATS), 2006).
